# Laboratory results taken from PubChem BioAssay AID651640 (Broad Institute, 2012).
# The campaign covered roughly 350,000 compounds. About 6,000 (1.7%) were called active. This list was built around the results that the source calls inconclusive (neither active nor inactive); the mix of calls is not that of the screen. No stated cut-off is given here; in the data, active means CPE inhibition above about 20% (passing the limit was not always enough); inconclusive means no clear call, values can overlap the other calls; tested in BHK-21 cells.
# Assay: protection of cells from dengue 2 killing – plate reader, single concentration, primary screen (AID 651640);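 further: 0% = median of neutral control wells and 100% = median of positive control wells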
# Details: DENV2-infected cells, cytopathic effect rescue, at 9.99 µM, active compounds read high
row,Compound,CPE inhibition
1,CCCCCCN1C[C@H](O)[C@@H](n2cc(C3CC3)nn2)C[C@@H]1c1ccc(Cl)cc1,inconclusive: 68.8%
2,FC(F)(F)c1ccc(CN2C[C@@H]3C(c4ccccc4)C4(c5cccnc5)CC3(C4)[C@H]2c2ccccc2)cc1 (some centres not stated),inconclusive: 43.3%
3,O=S(=O)(NCCC1=CCCCC1)c1ccc(Br)cc1,active: 119%
4,CC(C)[C@@H]1Cc2[nH][nH]c(=O)c2[C@H](C)O1,inconclusive: 48.3%
5,COc1ccc(C(=O)CCN2CCN(c3ccc(OC)cc3)CC2)cc1,inconclusive: 35.5%
6,CN(CC1CCCN(CCc2ccc(Cl)cc2)C1)C(=O)c1ccco1 (configuration not stated),inconclusive: 30.3%
7,O=C(COC(=O)c1cccc(O)c1)Nc1ccc(N2CCOCC2)cc1,inconclusive: 24.6%
8,CC(=O)Nc1cccc(-c2ccnc3c2CC(C(=O)NCc2ccncc2)O3)c1 (configuration not stated),inactive: -7.53%
9,O=C(c1ccncc1)N1CC(=O)N2[C@H](CO)[C@H](c3ccc(-c4ccccc4F)cc3)[C@@H]2C1,inconclusive: 30.9%
10,O=C(Cc1ccc(Cl)cc1)Nc1cccc(S(=O)(=O)N2CCCCC2)c1,inconclusive: 21%
11,CC(C)NC(=O)Nc1cccc2c1O[C@H](CN(C)Cc1ccc(Cl)c(Cl)c1)[C@@H](C)CN([C@H](C)CO)C2=O,inconclusive: 38.6%
12,COc1ccc(CNC(=O)C[C@H]2C=C[C@H](NC(=O)c3cccc(F)c3)[C@@H](CO)O2)cc1,inconclusive: 32.2%
13,CC(C)Cc1nnc(NC(=O)C2CCCN(C(=O)c3ccc(Cl)cc3)C2)s1 (configuration not stated),inconclusive: 50%
14,O=C1CCCC2=C1C(c1cccc(O)c1)c1c(ccc3ncccc13)N2 (configuration not stated),inconclusive: 32.2%
15,Cc1cccc2sc(NC(=O)c3ccc(Cl)s3)nc12,inconclusive: 21.9%
16,CCCCCC(=C/c1ccccc1)/C=N/Nc1ccc(S(=O)(=O)N2CCOCC2)cc1[N+](=O)[O-],active: 32.2%
17,Cc1ccc2nc(SC(C)C(=O)NC3CCCC3)[nH]c2c1 (configuration not stated),inactive: 6.04%
18,C[C@@H]1CN([C@H](C)CO)C(=O)c2cccc(NC(=O)Nc3ccc(F)cc3)c2O[C@H]1CN(C)C(=O)Nc1ccc2c(c1)OCO2,inactive: 4.82%
19,COC(=O)[C@@]12CCCCN1[C@H](c1ccc(-c3cc(C(C)=O)cs3)cc1)[C@H]1C(=O)N(C)C(=O)[C@H]12,inconclusive: 62.4%
20,Cc1cc(NS(=O)(=O)c2ccc(NC(=S)NC(=O)c3ccc(F)cc3Cl)cc2)no1,active: 78.9%
21,CCN(CC(=O)NCC(=O)Nc1cccc(C)c1C)Cc1ccccc1,active: 61.4%
22,COc1ccccc1C#Cc1ccc2c(c1)O[C@@H](CN(C)C(C)=O)[C@@H](C)CN([C@H](C)CO)S2(=O)=O,inconclusive: 26.2%
23,Cc1ccc(S(=O)(=O)N(C)C[C@@H]2OCc3ccccc3-c3ccccc3C(=O)N([C@@H](C)CO)C[C@@H]2C)cc1,inconclusive: 25.5%
24,Cc1nc(N2CCOCC2)c2c3c(sc2n1)CCC3,inactive: 7.78%

row,Compound,CPE inhibition
1,CC1CCc2c(sc3ncnc(NCc4cccnc4)c23)C1 (configuration not stated),inconclusive: 34.2%
2,COCC(=O)Nc1ccc2c(c1)C(=O)N(C)[C@@H]1CC[C@@H](CC(=O)NCCc3ccccc3)O[C@@H]1CO2,inactive: 6.93%
3,O=C(c1ccncc1)N1CCN(c2cc(-c3ccccc3)nc3cc(-c4cccc(Cl)c4)nn23)CC1,inconclusive: 35%
4,CC(C)(CO)NS(=O)(=O)c1ccc2c(c1)Cc1cc(S(=O)(=O)NC(C)(C)CO)ccc1-2,inconclusive: 24.7%
5,Cc1noc(C)c1NC(=O)Nc1ccc2c(c1)C(=O)N([C@H](C)CO)C[C@H](C)[C@H](CN(C)C(=O)C1CCCCC1)OCCCC[C@H](C)O2,inactive: -4.65%
6,CSCCC(NS(=O)(=O)c1cccs1)C(=O)NCc1ccccc1 (configuration not stated),active: 35.7%
7,CC12COC3(C(=O)Nc4ccccc4F)CC1CCC32C (configuration not stated),inconclusive: 28.3%
8,O=C(C1CCOCC1)N1CC[C@@H]2[C@H](CO)Nc3ccc(-c4cccc(F)c4)cc3[C@@H]21,inconclusive: 30.7%
9,COC(=O)[C@@]1(CCC(=O)OC(C)(C)C)N=C(c2ccc(OCCCO)cc2)O[C@H]1c1ccccc1,inconclusive: 43.3%
10,C[C@@H]1CN([C@H](C)CO)C(=O)c2cccc(NS(=O)(=O)c3ccc(Cl)cc3)c2O[C@H]1CN(C)Cc1ccccc1,active: 25%
11,C#Cc1ccc([C@@H]2C=C(C(=O)OCC=C)O[C@H](OCC)[C@H]2CCCO)cc1,inactive: 13.2%
12,C[C@@H]1CCCCO[C@@H](CN(C)Cc2ccccc2)[C@H](C)CN([C@@H](C)CO)C(=O)c2cc(NS(=O)(=O)c3ccccc3)ccc2O1,inconclusive: 39.4%
13,C[C@H]1CN([C@@H](C)CO)C(=O)c2cccc(NC(=O)Nc3cccc4ccccc34)c2O[C@H]1CN(C)Cc1ccc(C(=O)Nc2ccccc2N)cc1,inconclusive: 24.9%
14,C[C@@H]1CCCCO[C@@H](CN(C)CC2CCCCC2)[C@H](C)CN([C@H](C)CO)C(=O)c2cc(NC(=O)NC3CCCCC3)ccc2O1,inconclusive: 24.7%
15,Cc1cc(NC(=O)C(C)N2C(=O)c3ccccc3S2(=O)=O)no1 (configuration not stated),inconclusive: 49.4%
16,CCOC(=O)[C@H](O)[C@@H](O)c1cccc([C@H](O)[C@@H](O)C(=O)OCC)c1,active: 41.3%
17,COCc1cc(/C=N\NC(=O)COc2ccccc2)ccc1OC,inconclusive: 51.9%
18,CCCS(=O)(=O)NC(=O)C1(C)CCCN(C(=O)c2ccnc(Cl)c2)C1 (configuration not stated),inconclusive: 32.5%
19,C[C@H](CO)N1C[C@H](C)[C@@H](CN(C)CC2CC2)Oc2c(NC(=O)c3cnccn3)cccc2C1=O,inactive: 9.02%
20,O=C(COC(=O)Cn1cc(C(F)(F)F)ccc1=O)NCc1ccccc1,inconclusive: 25.8%
21,O=C(NCCN1CCC(n2c(=O)[nH]c3ccccc32)CC1)c1ccccc1,active: 20.2%
22,Cn1cc(Cl)c(C(=O)NC(=S)Nc2sc3c(c2C#N)CCCCC3)n1,inactive: 0.353%
23,C[C@H]1CCCCO[C@@H](CN(C)S(=O)(=O)c2ccccc2)[C@@H](C)CN([C@@H](C)CO)C(=O)c2cc(N(C)C)ccc2O1,inconclusive: 103%

# Entries from the list above that have a CF3 group, in the order listed:
row,Compound,CPE inhibition
2,FC(F)(F)c1ccc(CN2C[C@@H]3C(c4ccccc4)C4(c5cccnc5)CC3(C4)[C@H]2c2ccccc2)cc1 (some centres not stated),inconclusive: 43.3%
20,O=C(COC(=O)Cn1cc(C(F)(F)F)ccc1=O)NCc1ccccc1,inconclusive: 25.8%
